PubChem BioAssay AID1053208 | Peter MacCallum Cancer Centre – 2014

Test: 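Genes whose silencing cuts survival of bone tumour cells only with doxorubicin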 (primary screen)
System: mouse osteosarcoma cells, early-passage culture from an engineered mouse model of fibroblastic bone tumour
Reagent: siRNA pool against mouse genes, 40 nM
Duration: about 120 h (48 h before drug, then 72 h with drug)
Treatment: doxorubicin 100 nM for 72 h, roughly 30-40% inhibitory dose
Measurement: 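Viability read as ATP luminescence after 72 h of 100 nM doxorubicin or none, duplicate wells averaged, scaled to non-targeting siRNA, then expressed as robust z-scores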
Reading the numbers: viability z-score with doxorubicin: higher = more viable cells under doxorubicin; viability z-score without drug: higher = more viable cells with knock-down alone
Call rule: 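a pool counts as active when its viability z-score with doxorubicin is -2 or below and its z-score without drug lies between -2 and 2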
This is a random part of about 17,000 deposited reagents. Of all reagents, 788 (4.7%) got an active call. 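Calls rest on z-score classes alone; an extra cut-off of viability at most 70% of control was not applied to them.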 Not all columns of the deposit are shown.

Tdrd6 (tudor domain containing 6) showed combined z-score class no change with or without drug; viability z-score with doxorubicin 0.22; viability z-score without drug 0.34; inactive.
Knock-down of Cog4 (component of oligomeric golgi complex 4) came out at: combined z-score class no change with or without drug; viability z-score with doxorubicin 0.11; viability z-score without drug -0.17; inactive.
Depletion of Ss18l2 (SS18, nBAF chromatin remodeling complex subunit like 2) came out at: combined z-score class no change with or without drug; viability z-score with doxorubicin 0.67; viability z-score without drug 1.52; inactive.
After knock-down of F12 (coagulation factor XII (Hageman factor)), the record shows combined z-score class low cell count without drug only; viability z-score with doxorubicin -1.69; viability z-score without drug -3.04; inactive.
Depletion of Cry2 (cryptochrome circadian regulator 2) came out at: combined z-score class no change with or without drug; viability z-score with doxorubicin 0.45; viability z-score without drug 0.84; inactive.
After knock-down of Plscr4 (phospholipid scramblase 4), the screen gave combined z-score class no change with or without drug; viability z-score with doxorubicin -0.11; viability z-score without drug 0.51; inactive.
Knock-down of Dnajc24 (DnaJ heat shock protein family (Hsp40) member C24) resulted in: combined z-score class no change with or without drug; viability z-score with doxorubicin -0.56; viability z-score without drug -0.17; inactive.
Against Prepl (prolyl endopeptidase-like) the deposit lists combined z-score class no change with or without drug; viability z-score with doxorubicin 1.12; viability z-score without drug 0.34; inactive.
With knock-down of Rps18 (ribosomal protein S18), the screen gave combined z-score class low cell count with and without drug; viability z-score with doxorubicin -4.72; viability z-score without drug -4.22; inactive.
Depletion of Il5 (interleukin 5) came out at: combined z-score class no change with or without drug; viability z-score with doxorubicin -0.45; viability z-score without drug -0.17; inactive.

Copied from the list:
Under “Outcome”, Cog4 (component of oligomeric golgi complex 4) has inactive
Dnajc24 (DnaJ heat shock protein family (Hsp40) member C24), viability z-score with doxorubicin = -0.56

The listing continues:
For Foxj3 (forkhead box J3), the entry reads combined z-score class no change with or without drug; viability z-score with doxorubicin 0; viability z-score without drug -0.17; inactive.
After knock-down of Pik3c2b, the record shows combined z-score class no change with or without drug; viability z-score with doxorubicin 0.9; viability z-score without drug 0.51; inactive.
With knock-down of Kif4 (kinesin family member 4), the screen gave combined z-score class no change with or without drug; viability z-score with doxorubicin -1.35; viability z-score without drug -1.01; inactive.
Against Ulk4 (unc-51-like kinase 4) the deposit lists combined z-score class no change with or without drug; viability z-score with doxorubicin 0.22; viability z-score without drug 0.67; inactive.
Knock-down of Epha8 (Eph receptor A8) resulted in: combined z-score class no change with or without drug; viability z-score with doxorubicin 0.67; viability z-score without drug 0.17; inactive.
Gprc5b (G protein-coupled receptor, family C, group 5, member B) gave combined z-score class no change with or without drug; viability z-score with doxorubicin 1.35; viability z-score without drug 1.35; inactive.
Against R3hdm1 (R3H domain containing 1), the entry reads combined z-score class no change with or without drug; viability z-score with doxorubicin 0; viability z-score without drug -0.51; inactive.
With knock-down of Acyp2 (acylphosphatase 2, muscle type), the record shows combined z-score class no change with or without drug; viability z-score with doxorubicin 0.45; viability z-score without drug 0.84; inactive.
Dock3 (dedicator of cyto-kinesis 3) gave combined z-score class no change with or without drug; viability z-score with doxorubicin 0.56; viability z-score without drug -0.34; inactive.
Vwc2 (von Willebrand factor C domain containing 2) scored combined z-score class no change with or without drug; viability z-score with doxorubicin 0; viability z-score without drug 1.35; inactive.
Knock-down of Exo5 (exonuclease 5) gave: combined z-score class no change with or without drug; viability z-score with doxorubicin -0.34; viability z-score without drug -1.18; inactive.
Ppp2r2c (protein phosphatase 2, regulatory subunit B, gamma) scored combined z-score class no change with or without drug; viability z-score with doxorubicin -1.24; viability z-score without drug 1.01; inactive.
Against Ndufc2 (NADH:ubiquinone oxidoreductase subunit C2), the values are combined z-score class no change with or without drug; viability z-score with doxorubicin 0.11; viability z-score without drug -0.51; inactive.
Depletion of Blmh (bleomycin hydrolase) gave: combined z-score class no change with or without drug; viability z-score with doxorubicin 0.22; viability z-score without drug 0.17; inactive.
Itfg1 (integrin alpha FG-GAP repeat containing 1) gave combined z-score class no change with or without drug; viability z-score with doxorubicin -0.67; viability z-score without drug 0.67; inactive.
After knock-down of Ahi1 (Abelson helper integration site 1), the screen gave combined z-score class no change with or without drug; viability z-score with doxorubicin 0.34; viability z-score without drug -0.17; inactive.
Knock-down of Nlrp9b (NLR family, pyrin domain containing 9B) came out at: combined z-score class no change with or without drug; viability z-score with doxorubicin 0.22; viability z-score without drug 1.52; inactive.
Depletion of Lman2 (lectin, mannose-binding 2) gave: combined z-score class no change with or without drug; viability z-score with doxorubicin -0.9; viability z-score without drug 0.17; inactive.
